Among all 53,000 sequences or so, about 3,700 (7%) were called active.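 Rule for the calls: active = gene knockdowns whose robust z-score for IL-1 alpha signal is at least 2 or at most -2, so actives lie on both sides; inactive = the rest.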 Some of the results follow.
experiment: Components of the Cytosolic LPS Sensing Pathway: Gene Identification via Genome-wide siRNA Screen; settings: RAW264.7 macrophages, IL-1a HTRF, actives lie on both sides, screened at 100 nM (by protocol), cells primed 5 h with Pam3CSK4 first;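 note: robust z of the log signal after scaling to non-targeting control siRNA wells of the plate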
Summary of the method: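 RAW264.7 mouse macrophages reverse-transfected with single siRNAs (100 nM final) for 48h, primed with Pam3CSK4 for 5 hours, then transfected with LipidA for 24 hour. Supernatant IL-1a read by HTRF; values normalized to negative-control median, log-transformed robust z-scores.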

| Sequence | z-score |
| --- | --- |
| GCUGGACAUCGACUUUGGATT against Prnd | inactive: -1.54 |
| CCUGGCUAAUGACUAGCUCTT against Muc15 | inactive: 0.875 |
| GCUGAAGGAUCCCAUUAGATT against Cbx2 | inactive: -1.68 |
| GCUCUUCUCUGUACGACAUTT against Bcas3 | inactive: 1.28 |
| GGGAGCUUUGGAAAUUUUATT against Zbtb3 | inactive: 0.451 |
| GGUAUGUUUUCCUUAAGUGTT against Cdc42se1 | inactive: 1.92 |
| GGUGUUUGGCAAUCUCAAUTT against Oplah | inactive: 1.75 |
| GGAACUAUCCAGUAGGUAGTT against Mill2 | inactive: 0.846 |
| CCACGUGGUUAUCUAUUAUTT against Armcx5 | inactive: 0.273 |
| CCGGACUUUAUAUGACAACTT against Cd80 | inactive: 0.785 |
| GGAAGUUUCAGAAAACAUGTT against Nasp | inactive: -0.237 |
| GCUAGUUGCAUUCUGUGCUTT against Rpl7l1 | inactive: 0.439 |
| GGAGCUGUUUUCUGUGAAGTT against Mrps2 | inactive: 0.0283 |
| GGAAUUCAAGAAAAGGAUCTT against Plvap | inactive: 0.225 |
| GGCUAUGUACAAGACUAUGTT against Eif3j1 | inactive: -0.488 |
| CCCUAUUAAUCUCAUUGUGTT against P2rx4 | inactive: 0.555 |
| GGAUGGACAAAAUACUUAATT against B230354K17Rik | inactive: 1.99 |
| GGACAGGCUCUACCAGUAUTT against Syt15 | inactive: 0.151 |
| CGCGACUUCCACAAACCUGTT against LOC574530 | inactive: -1.15 |
| GGGUGUAAUAUCAAAAAAGTT against Atp7a | inactive: 0.356 |
| UUGUGGGCUUAUGGAUAUUTT against 9430025C20Rik | inactive: -0.659 |
| GCUGUCAGAGUGGUGAUAUTT against Zdhhc7 | inactive: 0.513 |

| Sequence | z-score |
| --- | --- |
| GGCUAUUAGGUUUGAAAUCTT against Grsf1 | inactive: 0.351 |
| GGAAGGUGAAGCCAGUUUCTT against Traf3ip2 | active: 2.02 |
| CCACGAGAUGGAAUAUCGCTT against Cyyr1 | inactive: -1.79 |
| GGAUGCCAGAAGAAUAUUCTT against Pnlip | active: 2.43 |
| GGUCUCAAAGAAGAGGAGUTT against Als2cl | inactive: 1.61 |
| GGCCAGAAUAUCAUCGUCATT against Rbks | inactive: -0.163 |
| GGCGGAAGUGUUAGACAUGTT against Art3 | inactive: -0.0617 |
| GGAGAAAAAGAGAAGUAUUTT against Skint9 | inactive: -0.874 |
| GGAUGUUCAUCUAUUUCUUTT against Scgb1b2 | inactive: -0.626 |
| CCGAUUCAGGUAUUGCACGTT against Prkra | inactive: 1.06 |
| GGAGAAAGCACUCAAUUUGTT against Dlgap4 | inactive: -0.995 |
| GGAACAUCAGGUGCAUGUGTT against Pkd1 | inactive: -1.79 |
| UCAGUGUGCUGUUUCUUUUTT against Olfr1359 | inactive: -1.21 |
| CCCUCUAGGUUCUUUAGCCTT against Sox7 | inactive: -0.339 |
| GGGCUAAAUUAAGCUUCUATT against Sowahd | inactive: -0.707 |
| GGAAUUAACAUCUUCUUACTT against Muc4 | inactive: 0.773 |
| GCUGAUGCUCCAUUGAAUGTT against Prr27 | inactive: 0.228 |
| GGUCAACAACGAAUCCUUUTT against Rho | inactive: 0.349 |
| GGAUCCAGAACUAAAAAUCTT against Pcdhga2 | inactive: 0.193 |
| GGUUUGCAUCUUCUUAUUCTT against Myd88 | inactive: -1.73 |
| GGUUUUUGAACAAAGGAGATT against Slc11a2 | inactive: -0.243 |
| CCUCUACGAUGACUGGAUGTT against Sh3bp1 | inactive: 0.227 |

In another format: results already given.
Sequence	z-score
CCACGAGAUGGAAUAUCGCTT against Cyyr1	inactive: -1.79
GGAUGCCAGAAGAAUAUUCTT against Pnlip	active: 2.43

(continued)

| Sequence | z-score |
| --- | --- |
| GGUAUUCCAAUAACUGUACTT against Fip1l1 | inactive: -0.269 |
| GGUGGAAUAUAGAAGUUUCTT against Arhgef28 | inactive: 0.708 |
| GCCAAACUAUCAGAGAUGGTT against Slc38a7 | inactive: 0.0528 |
| GGCAAGAAUAUGAAAAGCUTT against Hmmr | inactive: -0.974 |
| CGCAAUCAUGAGCUUCGUCTT against Eci2 | inactive: 0.137 |
| GAAUAUUGCUCAGUGCAAGTT against Slurp1 | inactive: 1.27 |
| GCUGCUACGUGUUCAAGGUTT against Ctss | inactive: 0.00488 |
| GGACUACCAUCGACCUUCATT against Nek2 | inactive: 1.15 |
| CCUGCCUAUGUCUAGGCCATT against Tspyl3 | inactive: 0.589 |
| GGACCUCCUCCCAAAGAUATT against Snrpb | active: -2.83 |
| GGAAUGCUGAAGUAAAAAATT against Olfr1259 | inactive: -0.808 |
| GGGAACAGAAGUCAAGGCATT against Zbtb8os | inactive: 0.223 |
| GGCCGUUUUUUGGCAUCGUTT against Acss1 | inactive: -1.71 |
| GGAAAGACAAAGAACUCUATT against Ssu72 | inactive: -0.535 |
| GGAAAGGACCACCUAAGUUTT against Pde6g | inactive: 0.0534 |
| GGCUGAGAAGCAGACUUCCTT against Dclk3 | inactive: 1.23 |
| GGAGAUCAAGCCGCACAUGTT against Ccnd3 | inactive: -0.479 |
| GGAAAGAUGAGCUGUCCUATT against Csta2 | inactive: -1.62 |
| CCGUCUGAUAGCAAUCCGATT against Olfr632 | inactive: -0.452 |
| GCCUAUGCUCAACUUCUCGTT against Thap4 | active: -3.31 |
| GGACAAGUGUGUUGAUGGUTT against Strbp | inactive: -1.53 |
| GGAACUCUGCCAAAGCUGUTT against Dffa | inactive: 0.125 |

| Sequence | z-score |
| --- | --- |
| CCUCAAGUGCGAAAACGUGTT against Tssk6 | inactive: 0.444 |
| GCCCUUUAUAUGACUUGAGTT against Kcnj2 | inactive: -1.16 |
| ACCCUCACCUCGCAUGACUTT against Pcbd2 | inactive: -1.57 |
| GGAAACAGCAAUCAAAUACTT against Dhx40 | inactive: 0.483 |
| GGAGUCAAAAAAAAUGCAATT against Ribc1 | inactive: 1.17 |
| GCAGCUGAAAAUCGAGAACTT against Ccdc113 | inactive: 1.2 |
| CCAUUCACAUUGUGUCAAATT against Krtap26-1 | inactive: -0.466 |
| GAUGUUUGUUUUCAGUGCCTT against Olfr1330 | inactive: -1.37 |
| GGAUCCUUCGCUUUUAUCGTT against Nox1 | inactive: -0.343 |
| GCACUACUGCCCAUGAUUGTT against Agrn | inactive: 0.873 |
| GGAUCCGCAUCUACAAGCUTT against 1700016K19Rik | inactive: 0.77 |
| GGAAGAACCUGCCAAGAUCTT against Nckap5 | inactive: -0.553 |
| GGAUCAUUCAGCAUUGUAGTT against Dnm1l | inactive: 0.192 |
| GGUGAACAACUGGUUUAUUTT against Meis3 | inactive: 1.48 |
| GGAGGAGUAUGUUAAGGCCTT against Myh6 | inactive: 0.193 |
| GUUUCAGCCUGAGUGACAATT against Fam122a | inactive: -0.119 |
| GCAUCUGUGUCCAAGUACUTT against Jph1 | inactive: 0.967 |
| CGGUUGUCUUUAAAGAUUCTT against Gprin1 | inactive: 0.634 |
| GGUAAGAAAACUGACCUUATT against Abra | inactive: -0.787 |
| GGUAUUUAAUGGAAGCCUGTT against Acp7 | inactive: -0.537 |
| GGCUAUGACUAGCUAGAAUTT against Hoxc5 | inactive: -1.25 |
| GGUCAACUAGCAGAAACCATT against Adgrv1 | inactive: -1.84 |

| Sequence | z-score |
| --- | --- |
| GCUAGUUAGAACCUCGUUCTT against Cdk5 | inactive: 1.78 |
| GCUGACCGAUGUCAUCCUCTT against Itpk1 | inactive: 1.12 |
| GCACCAAGUCGUAUAAACATT against Sh3glb1 | inactive: -0.391 |
| GGCCUUUGUACAUGUUAGGTT against Cplx3 | inactive: -0.31 |
| GCUGCUUAUCUAGACCAGCTT against D630044L22Rik | inactive: -0.175 |
| GGAUAAAUGGUUCUAGAAATT against Zfp706 | inactive: 1.52 |
| GGGUUGUAGAUGCGUGGAATT against Plch1 | inactive: 0.767 |
| GGAAAAAGAAACCAGUGUUTT against Relb | inactive: -0.645 |
| GGCAAUCAUGGACCUUAUUTT against Spata9 | inactive: 1.8 |
| GGCAGUAACUGUAAGCCUGTT against Paxx | inactive: 0.851 |
| GGAGGCAGACUUCAGGGAUTT against P3h1 | inactive: 0.199 |
| GGAAGAUGCGCUUUCACAUTT against Gxylt2 | inactive: -1.95 |
| GCGGCAUUCGUCCAAAUUGTT against Trpt1 | inactive: 0.938 |
| GCUGUUGCACCAAUUAGUCTT against Dnajc5g | inactive: -0.577 |
| GGAAUGUUGCCGUCAUGUUTT against Olfr568 | inactive: -0.0596 |
| GGCCAACUCUACCUGAACATT against Defb22 | inactive: 0.44 |
| GGACAAAGAAGUGAAGUGUTT against Slc26a1 | inactive: -1.57 |
| CCUACUACACUCAAGGGCATT against Pgc | inactive: 0.0394 |
| GGAAGUCUCUAGGUUGUAUTT against Ddit4 | inactive: 0.0871 |

Looked up one by one from the list above:

| Sequence | z-score |
| --- | --- |
| GGAAUGUUGCCGUCAUGUUTT against Olfr568 | inactive: -0.0596 |
| GGACAAAGAAGUGAAGUGUTT against Slc26a1 | inactive: -1.57 |
| GGCCAACUCUACCUGAACATT against Defb22 | inactive: 0.44 |
| GCUGUUGCACCAAUUAGUCTT against Dnajc5g | inactive: -0.577 |
| CCUACUACACUCAAGGGCATT against Pgc | inactive: 0.0394 |
| GGGUUGUAGAUGCGUGGAATT against Plch1 | inactive: 0.767 |
